The values that follow come from article PMC5625491.

Sequences of proteins named here, by UniProt entry; tags and fusion partners are left off.
UniProt P10217: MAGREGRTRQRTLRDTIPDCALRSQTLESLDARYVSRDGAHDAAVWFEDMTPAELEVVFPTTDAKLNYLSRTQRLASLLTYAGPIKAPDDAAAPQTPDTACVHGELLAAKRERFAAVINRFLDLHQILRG

Test [1] has as its target T1, UL28 protein (pUL28) of herpes simplex virus 1 (herpes simplex virus 1, strain F [HSV-1(F)]) (UniProt P10212).
T1 sequence: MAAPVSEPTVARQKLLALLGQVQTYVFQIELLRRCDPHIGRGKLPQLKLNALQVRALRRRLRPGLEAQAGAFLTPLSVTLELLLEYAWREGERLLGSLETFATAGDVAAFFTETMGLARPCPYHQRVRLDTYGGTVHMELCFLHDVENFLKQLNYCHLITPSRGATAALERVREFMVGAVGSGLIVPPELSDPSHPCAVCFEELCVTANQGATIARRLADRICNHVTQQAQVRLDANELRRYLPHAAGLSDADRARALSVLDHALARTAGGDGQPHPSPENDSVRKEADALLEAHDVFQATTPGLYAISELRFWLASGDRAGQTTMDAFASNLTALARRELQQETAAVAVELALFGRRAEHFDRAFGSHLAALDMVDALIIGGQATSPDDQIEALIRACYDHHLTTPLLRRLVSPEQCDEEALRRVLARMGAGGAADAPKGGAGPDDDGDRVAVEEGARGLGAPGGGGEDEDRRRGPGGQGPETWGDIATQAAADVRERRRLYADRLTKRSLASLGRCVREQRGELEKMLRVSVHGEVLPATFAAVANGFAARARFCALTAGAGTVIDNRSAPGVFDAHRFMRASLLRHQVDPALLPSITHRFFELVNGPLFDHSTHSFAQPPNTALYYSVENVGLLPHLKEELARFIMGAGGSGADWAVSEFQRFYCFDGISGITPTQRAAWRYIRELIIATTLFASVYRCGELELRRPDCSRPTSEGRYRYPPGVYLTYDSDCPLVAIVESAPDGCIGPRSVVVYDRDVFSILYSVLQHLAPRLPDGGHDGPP
Description: co-IP; CV1 cells infected at MOI 5, lysed 18 h p.i. in RIPA buffer (50 mM Tris-HCl pH 7.4, 150 mM NaCl, 1% NP-40, 0.25% sodium deoxycholate, 1 mM EDTA); precipitated with anti-pUL28 antibody, blot probed for pUL33 (Fig. 2B).

The target of test [2] is UL33-encoded protein (pUL33) of herpes simplex virus 1, wild type (herpes simplex virus 1, strain F [HSV-1(F)]) (UniProt P10217). Description: co-IP; CV1 cells infected at MOI 5, lysed 18 h p.i. in RIPA buffer (50 mM Tris-HCl pH 7.4, 150 mM NaCl, 1% NP-40, 0.25% sodium deoxycholate, 1 mM EDTA); precipitated with anti-pUL33 antibody, blot probed for pUL28 (Fig. 2A).

No constants are given. Whether binding was seen depends on the method and setting. Binding seen in cells or lysates may run through a third protein. Some entries that bind do so weakly or less than the wild type.

Regarding “UL33-encoded protein (pUL33) of herpes simplex virus 1, wild type (from UniProt P10217 1-130)”, the binding entry in test [1] is reported as “binds”.

B1: UL28 protein (pUL28) of herpes simplex virus 1 (protein, UniProt P10212 1-785)
chain: T1 sequence
For the molecule B1, the binding entry in test [2] was “binds”.
